This passage reports binding results from paper PMC3806365.

Protein sequences, listed by entry. Tags and fused reporters are not part of them.
UniProt P48722: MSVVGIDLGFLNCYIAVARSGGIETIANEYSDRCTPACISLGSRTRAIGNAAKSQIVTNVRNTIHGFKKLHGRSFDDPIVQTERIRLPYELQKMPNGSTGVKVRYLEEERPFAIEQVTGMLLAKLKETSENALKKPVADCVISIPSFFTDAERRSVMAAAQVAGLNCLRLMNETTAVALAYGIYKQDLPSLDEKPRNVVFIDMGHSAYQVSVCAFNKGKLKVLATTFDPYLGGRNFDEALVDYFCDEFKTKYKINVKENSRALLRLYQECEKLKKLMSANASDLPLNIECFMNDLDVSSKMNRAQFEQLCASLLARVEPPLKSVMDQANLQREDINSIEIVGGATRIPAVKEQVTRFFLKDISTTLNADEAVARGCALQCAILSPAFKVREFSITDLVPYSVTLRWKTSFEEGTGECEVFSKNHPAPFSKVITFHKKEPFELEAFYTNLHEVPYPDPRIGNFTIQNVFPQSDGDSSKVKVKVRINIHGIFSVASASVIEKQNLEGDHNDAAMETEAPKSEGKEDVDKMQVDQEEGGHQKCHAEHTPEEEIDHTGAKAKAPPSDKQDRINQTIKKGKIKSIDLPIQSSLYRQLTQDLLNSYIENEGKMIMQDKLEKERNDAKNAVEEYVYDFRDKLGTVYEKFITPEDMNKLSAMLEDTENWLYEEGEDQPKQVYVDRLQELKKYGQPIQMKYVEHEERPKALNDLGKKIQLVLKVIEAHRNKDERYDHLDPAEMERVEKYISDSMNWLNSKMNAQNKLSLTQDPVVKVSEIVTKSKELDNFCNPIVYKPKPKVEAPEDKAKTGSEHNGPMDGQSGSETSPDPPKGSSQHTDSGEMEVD

Results are given in words; binding and its absence hold for the method and conditions named. In cells and extracts the contact can be indirect. Some entries that bind do so weakly or less than the wild type.

Experiment [1] concerns the target T1, Nogo-A, full length, overexpressed in CHO-K1 cells (Nogo-A_pcDNA3) (UniProt Q9JK11).
T1 sequence: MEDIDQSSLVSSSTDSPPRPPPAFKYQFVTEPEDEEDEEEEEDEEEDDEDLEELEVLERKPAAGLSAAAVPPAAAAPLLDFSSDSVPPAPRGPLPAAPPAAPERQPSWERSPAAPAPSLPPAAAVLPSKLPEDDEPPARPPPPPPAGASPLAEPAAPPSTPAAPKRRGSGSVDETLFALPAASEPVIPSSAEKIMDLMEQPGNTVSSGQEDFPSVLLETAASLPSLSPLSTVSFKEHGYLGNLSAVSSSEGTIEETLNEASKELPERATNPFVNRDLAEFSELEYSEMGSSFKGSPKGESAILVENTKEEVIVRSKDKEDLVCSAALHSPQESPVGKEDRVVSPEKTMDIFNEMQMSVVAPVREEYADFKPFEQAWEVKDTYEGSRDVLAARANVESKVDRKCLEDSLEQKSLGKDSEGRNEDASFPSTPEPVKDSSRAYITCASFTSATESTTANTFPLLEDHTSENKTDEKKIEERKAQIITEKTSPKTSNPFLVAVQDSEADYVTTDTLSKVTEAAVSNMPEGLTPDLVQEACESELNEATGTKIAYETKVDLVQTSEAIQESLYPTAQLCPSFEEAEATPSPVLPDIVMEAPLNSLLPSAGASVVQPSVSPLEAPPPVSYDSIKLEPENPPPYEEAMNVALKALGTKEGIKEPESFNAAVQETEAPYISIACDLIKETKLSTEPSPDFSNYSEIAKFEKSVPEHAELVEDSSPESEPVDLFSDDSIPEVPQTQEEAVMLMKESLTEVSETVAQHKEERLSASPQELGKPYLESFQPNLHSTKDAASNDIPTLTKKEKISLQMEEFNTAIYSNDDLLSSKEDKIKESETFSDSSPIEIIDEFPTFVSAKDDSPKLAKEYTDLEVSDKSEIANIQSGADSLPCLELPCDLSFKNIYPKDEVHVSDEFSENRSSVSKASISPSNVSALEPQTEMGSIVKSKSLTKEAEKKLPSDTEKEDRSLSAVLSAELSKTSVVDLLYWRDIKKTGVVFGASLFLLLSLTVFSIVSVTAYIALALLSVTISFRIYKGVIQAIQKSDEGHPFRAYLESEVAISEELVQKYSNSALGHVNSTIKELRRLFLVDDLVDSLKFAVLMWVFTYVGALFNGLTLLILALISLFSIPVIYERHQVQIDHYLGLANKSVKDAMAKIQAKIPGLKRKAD
Description: co-IP; Apg-1 co-transfected with Nogo-A or Nogo-B in adherent CHO-K1 cells, lysed in buffer A (50 mM Hepes pH 7.6, 150 mM NaCl, 10% glycerol, 1% Triton X-100); 200 μg of lysate with 6 μg of rabbit anti-Nogo-A/B (Bianca), rabbit anti-Apg-1 or rabbit IgG; Western blot.

The target in experiment [2] is Apg-1 (endogenous, mouse) (mouse (endogenous in brain and hippocampal neurons)) (UniProt P48722). Description: co-IP; endogenous proteins, brain lysate from a 4-week-old mouse, 1 mg of total protein; 6 μg of rabbit anti-Nogo-A/B (Bianca), rabbit anti-Apg-1 or rabbit IgG; Western blot. For orientation: A western blot detects proteins with antibodies after separation by electrophoresis.

Experiment [3] addresses Apg-1 (mouse), overexpressed in CHO-K1 cells (mouse) (UniProt P48722). Description: co-IP; Apg-1 co-transfected with Nogo-A or Nogo-B in adherent CHO-K1 cells, lysed in buffer A (50 mM Hepes pH 7.6, 150 mM NaCl, 10% glycerol, 1% Triton X-100); 200 μg of lysate with 6 μg of rabbit anti-Nogo-A/B (Bianca), rabbit anti-Apg-1 or rabbit IgG; Western blot.

As for “Apg-1 (mouse), overexpressed in CHO-K1 cells (from UniProt P48722 1-838)”, the binding result in experiment [1] is recorded as “binds”.

B1: RTN1-A (endogenous, mouse brain) (protein, UniProt Q8K0T0 1-780)
chain: MAAPPDLQDEPLSLGSPGSQWFGGRGDGEDEATAVMGARPAQQDGEPAWGSGAGAGVTSSRELCSGPARSPPVAMETASTGMAAVPDALDHSPSSTLKDGEGACYTSLISDVCYPPREDSAYFTGILQKENGHITTSESPEEPETPGPSLPEVPGMEPQGLLSSDSGIEMTPAESTEVNKILADPLDQMKAEAYKYIDITRPQEAKGQEEQHPGLEDKDLDFKDKDTEVSTKAEGVRAPNQPAPVEGKLIKDHLFEESTFAPYIDELSDEQHRVSLVTAPVKITLTEIEPPLMTATQETIPEKQDLCLKPSPDTVPTVTVSEPEDDSPGSVTPPSSGTEPSAAESQGKGSVSEDELIAAIKEAKGLSYETTESPRPVGQVADKPKTKTRSGLPTIPSPLDQEASSAESGDSEIELVSEDPMASEDALPSGYVSFGHVSGPPPSPASPSIQYSILREEREAELDSELIIESCDASSASEESPKREQDSPPMKPGALDAIREETGSRATEERAPSHQGPVEPDPMLSFAPAAALQSRPEPSSGDGASVPEPPRSQQQKPEEEAVSSSQSPTATEIPGPLGSGLMPPLPFFNKQKAIDLLYWRDIKQTGIVFGSFLLLLFSLTQFSVVSVVAYLALAALSATISFRIYKSVLQAVQKTDEGHPFKAYLELEITLSQEQIQKYTDCLQLYVNSTLKELRRLFLVQDLVDSLKFAVLMWLLTYVGALFNGLTLLLMAVVSMFTLPVVYVKHQAQVDQYLGLVRTHINTVVAKIQAKIPGAKRHAE
On to B1, for which the binding entry in experiment [2] is “no binding”.

B2: Nogo-A, full length, overexpressed in CHO-K1 cells (Nogo-A_pcDNA3) (protein, UniProt Q9JK11-1 1-1163)
chain: MEDIDQSSLVSSSTDSPPRPPPAFKYQFVTEPEDEEDEEEEEDEEEDDEDLEELEVLERKPAAGLSAAAVPPAAAAPLLDFSSDSVPPAPRGPLPAAPPAAPERQPSWERSPAAPAPSLPPAAAVLPSKLPEDDEPPARPPPPPPAGASPLAEPAAPPSTPAAPKRRGSGSVDETLFALPAASEPVIPSSAEKIMDLMEQPGNTVSSGQEDFPSVLLETAASLPSLSPLSTVSFKEHGYLGNLSAVSSSEGTIEETLNEASKELPERATNPFVNRDLAEFSELEYSEMGSSFKGSPKGESAILVENTKEEVIVRSKDKEDLVCSAALHSPQESPVGKEDRVVSPEKTMDIFNEMQMSVVAPVREEYADFKPFEQAWEVKDTYEGSRDVLAARANVESKVDRKCLEDSLEQKSLGKDSEGRNEDASFPSTPEPVKDSSRAYITCASFTSATESTTANTFPLLEDHTSENKTDEKKIEERKAQIITEKTSPKTSNPFLVAVQDSEADYVTTDTLSKVTEAAVSNMPEGLTPDLVQEACESELNEATGTKIAYETKVDLVQTSEAIQESLYPTAQLCPSFEEAEATPSPVLPDIVMEAPLNSLLPSAGASVVQPSVSPLEAPPPVSYDSIKLEPENPPPYEEAMNVALKALGTKEGIKEPESFNAAVQETEAPYISIACDLIKETKLSTEPSPDFSNYSEIAKFEKSVPEHAELVEDSSPESEPVDLFSDDSIPEVPQTQEEAVMLMKESLTEVSETVAQHKEERLSASPQELGKPYLESFQPNLHSTKDAASNDIPTLTKKEKISLQMEEFNTAIYSNDDLLSSKEDKIKESETFSDSSPIEIIDEFPTFVSAKDDSPKLAKEYTDLEVSDKSEIANIQSGADSLPCLELPCDLSFKNIYPKDEVHVSDEFSENRSSVSKASISPSNVSALEPQTEMGSIVKSKSLTKEAEKKLPSDTEKEDRSLSAVLSAELSKTSVVDLLYWRDIKKTGVVFGASLFLLLSLTVFSIVSVTAYIALALLSVTISFRIYKGVIQAIQKSDEGHPFRAYLESEVAISEELVQKYSNSALGHVNSTIKELRRLFLVDDLVDSLKFAVLMWVFTYVGALFNGLTLLILALISLFSIPVIYERHQVQIDHYLGLANKSVKDAMAKIQAKIPGLKRKAD
Regarding B2, the binding entry in experiment [3] is “binds”.

B3: Nogo-A/RTN4-A (endogenous, mouse) (protein, UniProt Q99P72-2 1-1162)
chain: MEDIDQSSLVSSSADSPPRPPPAFKYQFVTEPEDEEDEEDEEEEEDDEDLEELEVLERKPAAGLSAAPVPPAAAPLLDFSSDSVPPAPRGPLPAAPPTAPERQPSWERSPAASAPSLPPAAAVLPSKLPEDDEPPARPPAPAGASPLAEPAAPPSTPAAPKRRGSGSVDETLFALPAASEPVIPSSAEKIMDLKEQPGNTVSSGQEDFPSVLFETAASLPSLSPLSTVSFKEHGYLGNLSAVASTEGTIEETLNEASRELPERATNPFVNRESAEFSVLEYSEMGSSFNGSPKGESAMLVENTKEEVIVRSKDKEDLVCSAALHNPQESPATLTKVVKEDGVMSPEKTMDIFNEMKMSVVAPVREEYADFKPFEQAWEVKDTYEGSRDVLAARANMESKVDKKCFEDSLEQKGHGKDSESRNENASFPRTPELVKDGSRAYITCDSFSSATESTAANIFPVLEDHTSENKTDEKKIEERKAQIITEKTSPKTSNPFLVAIHDSEADYVTTDNLSKVTEAVVATMPEGLTPDLVQEACESELNEATGTKIAYETKVDLVQTSEAIQESIYPTAQLCPSFEEAEATPSPVLPDIVMEAPLNSLLPSTGASVAQPSASPLEVPSPVSYDGIKLEPENPPPYEEAMSVALKTSDSKEEIKEPESFNAAAQEAEAPYISIACDLIKETKLSTEPSPEFSNYSEIAKFEKSVPDHCELVDDSSPESEPVDLFSDDSIPEVPQTQEEAVMLMKESLTEVSETVTQHKHKERLSASPQEVGKPYLESFQPNLHITKDAASNEIPTLTKKETISLQMEEFNTAIYSNDDLLSSKEDKMKESETFSDSSPIEIIDEFPTFVSAKDDSPKEYTDLEVSNKSEIANVQSGANSLPCSELPCDLSFKNTYPKDEAHVSDEFSKSRSSVSKVPLLLPNVSALESQIEMGNIVKPKVLTKEAEEKLPSDTEKEDRSLTAVLSAELNKTSVVDLLYWRDIKKTGVVFGASLFLLLSLTVFSIVSVTAYIALALLSVTISFRIYKGVIQAIQKSDEGHPFRAYLESEVAISEELVQKYSNSALGHVNSTIKELRRLFLVDDLVDSLKFAVLMWVFTYVGALFNGLTLLILALISLFSIPVIYERHQAQIDHYLGLANKSVKDAMAKIQAKIPGLKRKAE
Regarding B3, in experiment [2], the binding entry is recorded as “binds”.
